Measured values from PMC3285579.
Results are given in words; binding and its absence hold for the method and conditions named.

Biological target: T1, VAB-1 kinase region (669 aa-985 aa), wild type, two-hybrid bait (C. elegans) (UniProt O61460)
T1 sequence: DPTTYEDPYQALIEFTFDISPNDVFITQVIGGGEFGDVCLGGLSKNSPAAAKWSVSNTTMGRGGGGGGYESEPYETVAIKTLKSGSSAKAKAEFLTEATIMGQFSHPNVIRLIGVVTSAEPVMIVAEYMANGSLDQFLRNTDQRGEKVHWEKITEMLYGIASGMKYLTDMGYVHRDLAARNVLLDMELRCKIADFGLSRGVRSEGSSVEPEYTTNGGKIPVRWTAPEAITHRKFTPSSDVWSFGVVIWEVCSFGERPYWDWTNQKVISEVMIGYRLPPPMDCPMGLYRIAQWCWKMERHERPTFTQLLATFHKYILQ
Experiment: two-hybrid; directed assays: pGBKT7 bait, pGADT7 prey; beta-galactosidase activity measured qualitatively by X-GAL overlay

B1: ABL-1 SH2 domain, two-hybrid prey (domain or fragment, UniProt P03949 194-284)
chain: WYHGKISRSDSEAILGSGITGSFLVRESETSIGQYTISVRHDGRVFHYRINVDNTEKMFITQEVKFRTLGELVHHHSVHADGLICLLMYPA
- binding: no binding

B2: VAV-1 SH2 domain, two-hybrid prey (domain or fragment, UniProt Q45FX5 831-925)
chain: WYMGEMERAKAESTLKGTPNGTFLVRYSKNRKQTAISLSYKNDVKHMIIEQNSDGKVYLDEDYIFNSTVELVQYYRSNNLIEIFAALDTCLKNPY
- binding: no binding
